{"source": "patent US11896561B2", "about": "“Compositions including a cannabinoid and protocatechuic acid” (priority 2021, dated 2024)", "origin": "cited, not measured here", "settings": "range; cited from earlier work"}
{"compound": "C=C(C)[C@@H]1CCC(C)=C[C@H]1c1c(O)cc(CCCCC)cc1O", "note": "[CBD, Cannabidiol]", "values": [{"measurement": "bioavailability by inhalation", "result": "11-45%"}]}
